Reference: paper PMC11514473, “The transition state for coupled folding and binding of a disordered DNA binding domain resembles the unbound state” (Nucleic Acids Research, 2024)

What was measured:
[1] = system: T1, 285bZIP R302G C300S,C310S,C337S,R302G (human); assay: stopped-flow fluorescence (dissociation); conditions: koff 960 +/- 20 s-1, kon and KD not determined, 10 mM Mg2+; 10 mM MES pH 6.5, 150 mM NaCl, 10 mM MgCl2, 0.05% Tween-20, 25 C; recombinant protein; residues 285-339; protein details: extra N-terminal Gly; label: 5' Alexa Fluor 488; folded or branched DNA
T1 sequence (looked up): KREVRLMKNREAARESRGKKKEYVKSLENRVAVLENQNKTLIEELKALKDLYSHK

[2] = system: T2, CREB 285bZIP wild type (pseudo-WT, Cys to Ser) C300S,C310S,C337S (human); assay: competition with a labelled probe; conditions: unlabelled competitor 0.25-4 uM displaces N1, 10 mM Mg2+; 10 mM MES pH 6.5, 150 mM NaCl, 10 mM MgCl2, 0.05% Tween-20, 25 C; recombinant protein; residues 285-339
T2 sequence (looked up): T1 sequence (looked up) with G18R

Row | Sequence | binding result [1] | binding result [2]
1 | CCTGACGTCAGCCCCCTGACGTCAGG [AlexaFluor488-CREh] | binds more weakly | 
2 | CCTGACGTCATCCG (double strand) [14 bp competitor CRE DNA] |  | binds

Positions count from the first letter of the chain named. For at least one entry, the source does not settle the construct or the ends of the probe. For some assays here: A weaker result is weaker than the reference pair of the same experiment. At least one verdict was read from the data and is not stated in words by the source. Where a protein sequence is shown, tags need not be part of it.
